# Measurements: the supplement of paper PMC12009310
# Counter-ions that a name gives are not always drawn. ± gives the standard deviation of the averaged measurements. The list shows a part of the results. Part of the spread comes from offsets between plates or batches.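 The cells are a mouse kidney inner medullary collecting duct line, silenced either for the ciliary gene Rpgrip1l or with a non-targeting control siRNA.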
# Assays:
# mIMCD3 [1] = assay: robust z score of cell number vs plate controls; higher = more cells (less cytotoxic); details: 10 µM, 48 h
# mIMCD3 [2] = assay: robust z score of cilia incidence (% cells with single cilium) vs plate controls; higher = more ciliated cells; details: 10 µM; 48 h; siRNA: siScr
# mIMCD3 [3] = assay: robust z score of cilia incidence (% cells with single cilium) vs plate controls; higher = more ciliated cells (rescue of cilia loss); details: 10 µM; 48 h; siRNA: siRpgrip1l
Compound,robust z score of cell number (mIMCD3 [1]; siRNA: siRpgrip1l),robust z score of cell number (mIMCD3 [1]; siRNA: siScr),robust z score of cilia incidence (mIMCD3 [2]),robust z score of cilia incidence (mIMCD3 [3])
CCC(=O)NC[C@H](Cc1ccc(OCCc2nc(-c3ccccc3)oc2C)cc1)N/C(C)=C\C(=O)c1ccc(C(F)(F)F)cc1,-23.3 ± 12,-18.3 ± 2.2,-16.6 ± 13,-25.9 ± 16
COc1ccc(CN(CCN(C)C)c2ccccn2)cc1 [Mepyramine maleate],-0.938 ± 1.9,12.5 ± 16,1.49 ± 0.67,-6.69 ± 6.7
Cc1ccccc1N=Nc1ccc(NC(=O)c2ccnn2C)c(C)c1,-94.7 ± 67,-17.8 ± 4,-9.13 ± 8.2,-14.2 ± 4.4
O=C(O)CCC/C=C\C[C@@H]1CO[C@H](C(F)(F)F)O[C@@H]1c1ccccc1O,-4.76 ± 0.64,-7.41 ± 0.41,-0.527 ± 3.3,-1.99 ± 0.24
CC(C)(C(=O)O)c1ccc(C(O)CCCN2CCC(C(O)(c3ccccc3)c3ccccc3)CC2)cc1 (stereo not given) [Fexofenadine hydrochloride],-4.32 ± 5.1,-2.2 ± 0.81,-0.632 ± 2.4,-8.04 ± 3
O=C(O)CCCc1ccccc1 [sodium 4-Phenylbutyrate],-8.85 ± 2,1.25 ± 2.7,0.49 ± 1.9,-14 ± 6.9
CCOC(=O)[C@@H](C)Oc1cccc2c(=O)n(CC(=O)Nc3ccc4c(c3)OCCO4)ccc12,-4.73 ± 1.6,-5.13 ± 0.29,-7.9 ± 6.8,-6.27 ± 0.19
C[C@@H](CN1CCC(n2c(=O)[nH]c3cc(Cl)ccc32)CC1)NC(=O)c1ccc2ccccc2c1,-2.98 ± 1.3,-0.8 ± 1.4,-0.0543 ± 0.63,-4.77 ± 1.3
CCCCCCCCCCCCCCCC(=O)O[C@H](CC(=O)O)C[N+](C)(C)C (racemic) [(±)-Palmitoylcarnitine chloride],-121 ± 86,-161 ± 140,-20.5 ± 4.7,-48.05 ± 0.089
CC(C)[C@H]1c2ccc(F)cc2CC[C@@]1(CCN(C)CCCc1nc2ccccc2[nH]1)OC(=O)C1CC1 [NNC 55-0396 dihydrochloride],-29.7 ± 15,-27.5 ± 4.8,-48.5 ± 36,-33 ± 19
